Data reported in PubChem BioAssay AID1347076 (National Center for Advancing Translational Sciences (NCATS), 2019).
“And” between values parts separate entries of the source, which are not always exact repeats. Equal values may be shown once. Out of some 400,000 compounds screened, about 13,000 (3.2%) were called active. Inconclusive means that the source gave no clear call. Such entries were picked first, then a sample of the others. Calls come from the whole dose curve; as a rule, active = well fitted cell-killing curve with a large enough effect; inconclusive = small, poorly fitted or top-dose-only effect, or effect the other way; inactive = flat fitted curve, though single readings scatter. Potencies beside an inconclusive call are fits to weak or partial responses and may not hold up.

Test: qHTS assay for MDR1-selective chemotherapeutics: Primary screen using the drug-selected MDR subline cells KB-V1; note: nearly all actives have a fitted effect of over 60% in size
Details: KB-V1 MDR cells viability, CellTiter-Glo, 72 h; activity change, negative = cytotoxicity: at 46.1 µM (top of the series)
Summary of the method: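 Luminescent ATP read-out (CellTiter-Glo, 10 min) measures survival of drug-selected KB-V1 MDR cells after 72 h, 37 degrees C compound exposure. Medium: phenol-red-free DMEM, 10% FBS. Values from fitted concentration-response curves.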
% is set by controls: 0 for no effect and ±100 for the full control effect; potency is the fitted concentration of half-maximal effect.

Compound	Potency	activity change, negative = cytotoxicity
CCc1cc(=O)[nH]c(-n2[nH]c(-c3ccccc3)cc2=O)n1	inconclusive: 32.6 µM [cytotoxic, single point]	
CNc1ccc2ncc(-c3ccccc3NC(C)=O)n2n1		inactive: -4.91%
CCOC(=O)C1(CCc2ccccc2)CCN(C(=O)CN2C(=O)CSC2=O)CC1	inconclusive: 29.1 µM [rising, single point]	
Cc1ccc(NC(=O)COCc2cc(-c3cccs3)on2)cc1Cl		inactive: 8.37%
CCCCNS(=O)(=O)c1ccc2nc(-c3cccnc3)cc(C(=O)NCCCOCC)c2c1		inactive: 9.65%
COC(=O)[C@@]12C[C@@H](CC(=O)NCCC(C)C)C(=O)N(Cc3ccco3)C1=CCC(C)(C)C2	inconclusive: 3.26 µM [cytotoxic, partial curve, poor fit]	
CCN1/C(=C/C(C)=O)Sc2ccc(OC)cc21	inconclusive: 18.4 µM [cytotoxic, single point] and inconclusive: 18.4 µM [cytotoxic, partial curve]	
Cc1ccccc1C(=O)N1CCC(C(=O)Nc2nc3ccc(F)cc3s2)CC1	inconclusive: 8.2 µM [cytotoxic, partial curve]	
COc1cccc(CN(C)C(=O)CC23CC4CC(CC(C4)C2)C3)c1OC	inconclusive: 14.6 µM [cytotoxic, partial curve]	
CC(C)=CCCC1(C)C=Cc2c(c(C)cc3c2[nH]c2cc(O)ccc23)O1 (stereo unspecified)	inconclusive: 29.1 µM [cytotoxic, single point]	
Cc1cc(-c2nnc(SCCC(=O)Nc3ccccc3)o2)no1	inconclusive: 18.4 µM [cytotoxic, single point]	
N#CCCN(Cc1ccccc1)C(C(=O)NC1CCCCC1)c1ccnc2ccccc12 (stereo unspecified)	inconclusive: 23.1 µM [cytotoxic, partial curve, poor fit]	
CCCC(=O)N1CCCC(c2nc(-c3cccc(OC)c3)no2)C1 (stereo unspecified)	inconclusive: 13 µM [cytotoxic, partial curve]	
O=C(O)c1ccccc1C(=O)N1CCN(c2ccccc2)CC1	inconclusive: 13 µM [rising, partial curve]	
Cc1csc(NC(=O)C(C)Oc2ccc(Br)cc2)n1 (stereo unspecified)	inconclusive: 13 µM [cytotoxic, partial curve]	
O=C(COc1ccc(S(=O)(=O)NC2CCCCC2)cc1)NC1CCCCC1	inconclusive: 16.4 µM [cytotoxic, partial curve]	
CCOc1ccc(S(=O)(=O)Nc2ccc(Cl)cn2)c(C)c1C	active: 23.1 µM	
Cn1ccnc1SCc1cccc([N+](=O)[O-])c1	inconclusive: 3.26 µM [rising, partial curve, poor fit]	
Cc1ccc(S(=O)(=O)NC(N)=NCCc2ccc(Cl)cc2)cc1	active: 16.4 µM	
COc1ccc(CC(=O)Nc2nc(-c3ccc(F)c(F)c3)cs2)cc1	inconclusive: 29.1 µM [cytotoxic, single point]	
CC1=C(C(=O)Nc2ccccc2)C(c2ccco2)NC(=S)N1 (stereo unspecified)	inconclusive: 16.4 µM [rising, partial curve, poor fit]	
CCOC(=O)C1CCCN(C(=O)CNS(=O)(=O)c2ccc(Br)s2)C1 (stereo unspecified)	active: 20.6 µM	

Compound	Potency	activity change, negative = cytotoxicity
Cc1ccccc1S(=O)(=O)Cc1ccc(C(=O)N2CC(C)CC(C)C2)o1 (stereo unspecified)		inactive: -0.0379%
COC(=O)c1ccc(NC(=O)CN(c2cccc(C(F)(F)F)c2)S(C)(=O)=O)cc1		inactive: -15.4%
CCOC(=O)C1(S(=O)(=O)c2ccc(Cl)cc2)CCN(Cc2ccccc2)CC1	active: 20.6 µM	
Cc1ccccc1NC(=O)Cc1nc(COC(=O)CCOc2ccccc2)cs1	inconclusive: 29.1 µM [rising, single point]	
CCC(=O)Nc1nnc(S(=O)(=O)N2CCCCCC2)s1	inconclusive: 16.4 µM [rising, partial curve]	
N#Cc1nc(-c2ccc(Cl)cc2)oc1NCCc1ccccn1		inactive: -14.3%
Fc1ccc(NC(=S)Nc2ccc(F)c(Cl)c2)cc1Cl	inconclusive: 20.6 µM [cytotoxic, single point]	
Cc1nonc1NC(=O)c1oc2ccc(F)cc2c1C	inconclusive: 3.26 µM [rising, partial curve, poor fit]	
COc1ccc(NC(=O)C(NS(=O)(=O)c2cccc3nsnc23)c2ccccc2)cc1 (stereo unspecified)		inactive: 2%
COC(CNC(=O)[C@H](CSCc1ccccc1)N1Cc2ccccc2C1=O)OC	inconclusive: 7.31 µM [cytotoxic, partial curve]	
CSc1cccc(NC(=O)/C=C/c2ccc(Cl)cc2)c1	active: 14.6 µM	
CCC(CC)c1nn2cc(-c3ccccc3)nc2s1	inconclusive: 7.31 µM [rising, partial curve, poor fit]	
CC(=O)Nc1ccc(NC(=O)CSc2nc(=O)n(CCCN3CCOCC3)c3c2CCC3)cc1	inconclusive: 16.4 µM [rising, partial curve, poor fit]	
O=C(CSc1nnc(-c2ccncc2)o1)Nc1ccc(F)c(F)c1	inconclusive: 29.1 µM [rising, single point]	
O=C(NCc1ccccc1Cl)c1cccc(NC(=O)c2ccccc2)c1	inconclusive: 0.103 µM [cytotoxic, full curve, poor fit]	
CCOc1ccc(N(CC(=O)Nc2ccc(C)cc2)S(=O)(=O)c2c(C)noc2C)cc1	inconclusive: 16.4 µM [cytotoxic, single point]	
O=C(NCCc1ccccc1)C1Cc2c(-c3ccccc3Oc3ccccc3)ccnc2O1 (stereo unspecified)	inconclusive: 23.1 µM [cytotoxic, single point]	
CCCSc1ccc(-c2nn(-c3ccccc3)cc2/C=C(/C#N)C(=O)N2CCOCC2)cc1	active: 23.1 µM	
O=C(C1CCCN(S(=O)(=O)c2cccs2)C1)N1CCC(N2CCCCC2)CC1 (stereo unspecified)	inconclusive: 20.6 µM [rising, single point]	
CCOc1ccc(-c2nnn(CC(=O)Nc3cccc(OC)c3)n2)cc1OCC	inconclusive: 9.2 µM [cytotoxic, partial curve]	
COc1ccccc1NC(=O)c1ccc(Cl)c(S(=O)(=O)N2CCCCC2)c1	inconclusive: 7.31 µM [cytotoxic, partial curve]	
C#C[C@]1(OC(C)=O)CCC2C3CCC4=CC(=O)CC[C@@H]4C3CC[C@@]21C (stereo partly specified)	active: 9.2 µM	

Compound	Potency	activity change, negative = cytotoxicity
CCc1ccc(/C=C2\SC(=S)N(CCCC(=O)NC3=NCCS3)C2=O)cc1		inactive: 21.7%
O=C1c2cc(Cl)ccc2OC2(CCNCC2)C12CC(c1ccc(Cl)cc1)=NO2 (stereo unspecified)		inactive: 22.1%
CCOc1ccc(S(=O)(=O)NCCC(=O)NCCc2ccc(OCC)c(OCC)c2)cc1	inconclusive: 8.2 µM [cytotoxic, partial curve, poor fit]	
COc1ccc(N2CC(NC(=O)Cc3cccs3)CC2=O)cc1OC (stereo unspecified)		inconclusive: -0.66%
N#CC1=C(N)n2c(s/c(=C\c3cccs3)c2=O)=C(C#N)C1c1cccs1 (stereo unspecified)	inconclusive: 16.4 µM [rising, partial curve, poor fit]	
Cc1cc(OCc2cc(C(=O)N(C)C3CCOC3)no2)cc(C)c1Cl (stereo unspecified)	inconclusive: 9.2 µM [cytotoxic, partial curve, poor fit]	
CC(C)Oc1cccc(C(=O)Nc2ccc3oc(-c4ccccc4)nc3c2)c1	inconclusive: 20.6 µM [cytotoxic, single point]	
CC(C)CCSc1nc2[nH]ncc2c(=O)[nH]1	inconclusive: 29.1 µM [rising, single point]	
COc1ccc(NC(=O)NCCCN2CCN(c3cc(C)ccc3C)CC2)cc1		inactive: -3.93%
CC(COc1ccccc1)N1CCC(CO)(Cc2ccccc2)CC1 (stereo unspecified)	inconclusive: 5.8 µM [cytotoxic, full curve, poor fit]	
CCc1nnc(NC(=O)c2c(O)c3c([nH]c2=O)CCCC3)s1	inconclusive: 20.6 µM [cytotoxic, single point]	
O=C(Cn1cc(S(=O)(=O)Cc2ccccc2Cl)c2ccccc21)Nc1cccc(C(F)(F)F)c1	inconclusive: 18.4 µM [cytotoxic, single point]	
Cc1nc2nc(C)c(CCC(=O)NCCc3ccccc3)c(C)n2n1	inconclusive: 7.31 µM [rising, partial curve, poor fit]	
COc1cccc(NC(=O)Nc2ccc3c(c2)nc(C)n3C)c1	inconclusive: 29.1 µM [cytotoxic, partial curve, poor fit]	
CC12CCC(=O)N1C(C(=O)OCC(=O)Nc1ccc(C(F)(F)F)cc1)CS2 (stereo unspecified)	inconclusive: 29.1 µM [rising, single point]	
Cc1cc(C)cc(NC(=O)c2cc(Cl)sc2Cl)c1	inconclusive: 16.4 µM [cytotoxic, single point]	
O=C(CCc1nc(-c2ccccc2)no1)NCc1cccnc1		inconclusive: -49.5%
CC(C)(C)c1ccc(OCCC(=O)Nc2cccc(S(=O)(=O)NC3=NCCCCC3)c2)cc1	inconclusive: 20.6 µM [cytotoxic, single point]	
COC(=O)c1cc(C)nc(Nc2nc(C(N)Cc3ccc(Cl)cc3)cs2)n1 (stereo unspecified)	inconclusive: 29.1 µM [cytotoxic, single point]	
CCOC(=O)c1ccc(NC(=O)CN(c2ccc(C)cc2)S(=O)(=O)c2c(C)nn(C)c2C)cc1	inconclusive: 20.6 µM [cytotoxic, partial curve]	
CCn1ccnc1CN(C)C(=O)c1cc(COc2ccc(Cl)cc2OC)on1	inconclusive: 16.4 µM [cytotoxic, single point]	
Cc1ccc(Oc2ncc(CN3CCOCC3)s2)cc1		inactive: 13.4%

Quoted at random: 3 compounds from above
Compound	Potency	activity change, negative = cytotoxicity
N#CC1=C(N)n2c(s/c(=C\c3cccs3)c2=O)=C(C#N)C1c1cccs1 (stereo unspecified)	inconclusive: 16.4 µM [rising, partial curve, poor fit]	
Cc1cc(C)cc(NC(=O)c2cc(Cl)sc2Cl)c1	inconclusive: 16.4 µM [cytotoxic, single point]	
Cc1cc(OCc2cc(C(=O)N(C)C3CCOC3)no2)cc(C)c1Cl (stereo unspecified)	inconclusive: 9.2 µM [cytotoxic, partial curve, poor fit]	
